Reference: article PMC9827110

B1: RBL1, endogenous in HEK293 (protein, UniProt P28749 1-1068)
chain: MFEDKPHAEGAAVVAAAGEALQALCQELNLDEGSAAEALDDFTAIRGNYSLEGEVTHWLACSLYVACRKSIIPTVGKGIMEGNCVSLTRILRSAKLSLIQFFSKMKKWMDMSNLPQEFRERIERLERNFEVSTVIFKKYEPIFLDIFQNPYEEPPKLPRSRKQRRIPCSVKDLFNFCWTLFVYTKGNFRMIGDDLVNSYHLLLCCLDLIFANAIMCPNRQDLLNPSFKGLPSDFHTADFTASEEPPCIIAVLCELHDGLLVEAKGIKEHYFKPYISKLFDRKILKGECLLDLSSFTDNSKAVNKEYEEYVLTVGDFDERIFLGADAEEEIGTPRKFTRDTPLGKLTAQANVEYNLQQHFEKKRSFAPSTPLTGRRYLREKEAVITPVASATQSVSRLQSIVAGLKNAPSDQLINIFESCVRNPVENIMKILKGIGETFCQHYTQSTDEQPGSHIDFAVNRLKLAEILYYKILETVMVQETRRLHGMDMSVLLEQDIFHRSLMACCLEIVLFAYSSPRTFPWIIEVLNLQPFYFYKVIEVVIRSEEGLSRDMVKHLNSIEEQILESLAWSHDSALWEALQVSANKVPTCEEVIFPNNFETGNGGNVQGHLPLMPMSPLMHPRVKEVRTDSGSLRRDMQPLSPISVHERYSSPTAGSAKRRLFGEDPPKEMLMDKIITEGTKLKIAPSSSITAENVSILPGQTLLTMATAPVTGTTGHKVTIPLHGVANDAGEITLIPLSMNTNQESKVKSPVSLTAHSLIGASPKQTNLTKAQEVHSTGINRPKRTGSLALFYRKVYHLASVRLRDLCLKLDVSNELRRKIWTCFEFTLVHCPDLMKDRHLDQLLLCAFYIMAKVTKEERTFQEIMKSYRNQPQANSHVYRSVLLKSIPREVVAYNKNINDDFEMIDCDLEDATKTPDCSSGPVKEERGDLIKFYNTIYVGRVKSFALKYDLANQDHMMDAPPLSPFPHIKQQPGSPRRISQQHSIYISPHKNGSGLTPRSALLYKFNGSPSKSLKDINNMIRQGEQRTKKRVIAIDSDAESPAKRVCQENDDVLLKRLQDVVSERANH
B2: PTPN14 (tumor suppressor), endogenous in HEK293 (protein, UniProt Q15678 1-1187)
chain: MPFGLKLRRTRRYNVLSKNCFVTRIRLLDSNVIECTLSVESTGQECLEAVAQRLELRETHYFGLWFLSKSQQARWVELEKPLKKHLDKFANEPLLFFGVMFYVPNVSWLQQEATRYQYYLQVKKDVLEGRLRCTLDQVIRLAGLAVQADFGDYNQFDSQDFLREYVLFPMDLALEEAVLEELTQKVAQEHKAHSGILPAEAELMYINEVERLDGFGQEIFPVKDNHGNCVHLGIFFMGIFVRNRIGRQAVIYRWNDMGNITHNKSTILVELINKEETALFHTDDIENAKYISRLFATRHKFYKQNKICTEQSNSPPPIRRQPTWSRSSLPRQQPYILPPVHVQCGEHYSETHTSQDSIFHGNEEALYCNSHNSLDLNYLNGTVTNGSVCSVHSVNSLNCSQSFIQASPVSSNLSIPGSDIMRADYIPSHRHSAIIVPSYRPTPDYETVMRQMKRGILHTDSQSQSLRNLNIINTHAYNQPEDLVYSQPEMRERHPYTVPYGPQGVYSNKLVSPSDQRNPKNNVVPSKPGASAISHTVSTPELANMQLQGSHNYSTAHMLKNYLFRPPPPYPRPRPATSTPDLASHRHKYVSGSSPDLVTRKVQLSVKTFQEDSSPVVHQSLQEVSEPLTATKHHGTVNKRHSLEVMNSMVRGMEAMTLKSLHLPMARRNTLREQGPPEEGSGSHEVPQLPQYHHKKTFSDATMLIHSSESEEEEEEAPESVPQIPMLREKMEYSAQLQAALARIPNKPPPEYPGPRKSVSNGALRQDQASLPPAMARARVLRHGPAKAISMSRTDPPAVNGASLGPSISEPDLTSVKERVKKEPVKERPVSEMFSLEDSIIEREMMIRNLEKQKMAGLEAQKRPLMLAALNGLSVARVSGREENRVDATRVPMDERFRTLKKKLEEGMVFTEYEQIPKKKANGIFSTAALPENAERSRIREVVPYEENRVELIPTKENNTGYINASHIKVVVGGAEWHYIATQGPLPHTCHDFWQMVWEQGVNVIAMVTAEEEGGRTKSHRYWPKLGSKHSSATYGKFKVTTKFRTDSVCYATTGLKVKHLLSGQERTVWHLQYTDWPDHGCPEDVQGFLSYLEEIQSVRRHTNSMLEGTKNRHPPIVVHCSAGVGRTGVLILSELMIYCLEHNEKVEVPMMLRLLREQRMFMIQTIAQYKFVYQVLIQFLQNSRLI
B3: pRB, endogenous in HEK293 (protein, UniProt P06400 1-928)
chain: MPPKTPRKTAATAAAAAAEPPAPPPPPPPEEDPEQDSGPEDLPLVRLEFEETEEPDFTALCQKLKIPDHVRERAWLTWEKVSSVDGVLGGYIQKKKELWGICIFIAAVDLDEMSFTFTELQKNIEISVHKFFNLLKEIDTSTKVDNAMSRLLKKYDVLFALFSKLERTCELIYLTQPSSSISTEINSALVLKVSWITFLLAKGEVLQMEDDLVISFQLMLCVLDYFIKLSPPMLLKEPYKTAVIPINGSPRTPRRGQNRSARIAKQLENDTRIIEVLCKEHECNIDEVKNVYFKNFIPFMNSLGLVTSNGLPEVENLSKRYEEIYLKNKDLDARLFLDHDKTLQTDSIDSFETQRTPRKSNLDEEVNVIPPHTPVRTVMNTIQQLMMILNSASDQPSENLISYFNNCTVNPKESILKRVKDIGYIFKEKFAKAVGQGCVEIGSQRYKLGVRLYYRVMESMLKSEEERLSIQNFSKLLNDNIFHMSLLACALEVVMATYSRSTSQNLDSGTDLSFPWILNVLNLKAFDFYKVIESFIKAEGNLTREMIKHLERCEHRIMESLAWLSDSPLFDLIKQSKDREGPTDHLESACPLNLPLQNNHTAADMYLSPVRSPKKKGSTTRVNSTANAETQATSAFQTQKPLKSTSLSLFYKKVYRLAYLRLNTLCERLLSEHPELEHIIWTLFQHTLQNEYELMRDRHLDQIMMCSMYGICKVKNIDLKFKIIVTAYKDLPHAVQETFKRVLIKEEEYDSIIVFYNSVFMQRLKTNILQYASTRPPTLSPIPHIPRSPYKFPSSPLRIPGGNIYISPLKSPYKISEGLPTPTKMTPRSRILVSIGESFGTSEKFQKINQMVCNSDRVLKRSAEGSNPPKPLKKLRFDIEGSDEADGSKHLPGESKFQQKLAEMTSTRTRMQKQKMNDSMDTSNKEEK

Target: HPV42-E7, BirA*Flag-tagged BioID bait (human papillomavirus 42)
Test: proximity labelling; BioID: Flp-In T-REx HEK293 stably expressing N- or C-terminally BirA*Flag-tagged viral bait, 24 h with 1 ug/mL tetracycline and 50 umol/L biotin; streptavidin resin, tryptic digest, LC-MS/MS; compared with BirA* alone

Row | Binder | binding
1 | B1 | binds
2 | B2 | binds
3 | B3 | binds

Results are given in words; binding and its absence hold for the method and conditions named. Binding seen in cells or lysates may run through a third protein. These calls come from enrichment with a bait or labelling near it, and not all partners need be listed.
